Source: patent US20240245780A1, “PHARMACEUTICAL COMPOSITIONS CONTAINING STABLE AMORPHOUS SOLID SOLUTIONS AND DISPERSIONS” (Eastman Chemical Company, priority 2021, published 2024)
The name of at least one read-out is uncertain. For part of these data: At least one compound was matched to its structure with a doubt left.

Legend:
[1] = cited from earlier work
[2] = Solubility study of PSD in heated SAIB, HPLC; format: physicochemical; settings: SAIB 150° C.; water solubility measured at 25 or 37° C. and atmospheric pressure
Experimental: Analysis of drugs was performed by HPLC. […] Solubility was determined in three replicates for each drug.
SAIB was heated to 150° C. (RFX, DST, DLT, CYS, ITZ, SRL, APT and CBZ) or 130° C. (TAC and APZ), followed by addition of a known amount of the drug to dissolve in 30 min. Approximately, 100 mg of each sample were transferred to a 100-mL volumetric flask, and volume was made up with the mobile phase to dissolve the drug. The amount of dissolved drug was determined by validated HPLC.

SMILES | BCS Class [1] | Exp-LogP [1] | Increase in Solubility Relative to Water [2] [x]
CCC(C)n1ncn(-c2ccc(N3CCN(c4ccc(OCC5COC(Cn6cncn6)(c6ccc(Cl)cc6Cl)O5)cc4)CC3)cc2)c1=O (stereo not drawn) [Itraconazole] | 2 |  | 
CO[C@H]1C[C@@H]2CC[C@@H](C)[C@@](O)(O2)C(=O)C(=O)N2CCCC[C@H]2C(=O)O[C@H]([C@H](C)C[C@@H]2CC[C@@H](O)[C@H](OC)C2)CC(=O)[C@H](C)/C=C(\C)[C@@H](O)[C@@H](OC)C(=O)[C@H](C)C[C@H](C)/C=C/C=C/C=C/1C [Sirolimus] | 2 |  | 
Cc1nc(Nc2ncc(C(=O)Nc3c(C)cccc3Cl)s2)cc(N2CCN(CCO)CC2)n1 [Dasatinib] | 2 | 2.7 | 
CO[C@H]1/C=C/O[C@@]2(C)Oc3c(C)c(O)c4c(O)c(c5c(nc6cc(C)ccn65)c4c3C2=O)NC(=O)/C(C)=C\C=C\[C@H](C)[C@H](O)[C@@H](C)[C@@H](O)[C@@H](C)[C@H](OC(C)=O)[C@@H]1C [Rifaximin] |  | 2.6 | 
C[C@@H]1CCO[C@H]2Cn3cc(C(=O)NCc4ccc(F)cc4F)c(=O)c(O)c3C(=O)N12 [Dolutegravir] |  |  | 18.4
